Test results as given in patent publication US20120220029A1.
No constants are given. Whether binding was seen depends on the method and setting. Some entries that bind do so weakly or less than the wild type.

Sequences of proteins named here, by UniProt entry; tags and fusion partners are left off. A change or cut given only in a name is not applied to a line headed by its entry. Residues count along the entry.
UniProt P20263, residues 126-289: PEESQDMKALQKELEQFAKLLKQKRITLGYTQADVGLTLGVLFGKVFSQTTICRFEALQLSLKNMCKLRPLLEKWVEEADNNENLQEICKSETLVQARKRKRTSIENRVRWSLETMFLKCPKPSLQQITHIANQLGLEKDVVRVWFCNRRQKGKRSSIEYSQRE
UniProt Q61473: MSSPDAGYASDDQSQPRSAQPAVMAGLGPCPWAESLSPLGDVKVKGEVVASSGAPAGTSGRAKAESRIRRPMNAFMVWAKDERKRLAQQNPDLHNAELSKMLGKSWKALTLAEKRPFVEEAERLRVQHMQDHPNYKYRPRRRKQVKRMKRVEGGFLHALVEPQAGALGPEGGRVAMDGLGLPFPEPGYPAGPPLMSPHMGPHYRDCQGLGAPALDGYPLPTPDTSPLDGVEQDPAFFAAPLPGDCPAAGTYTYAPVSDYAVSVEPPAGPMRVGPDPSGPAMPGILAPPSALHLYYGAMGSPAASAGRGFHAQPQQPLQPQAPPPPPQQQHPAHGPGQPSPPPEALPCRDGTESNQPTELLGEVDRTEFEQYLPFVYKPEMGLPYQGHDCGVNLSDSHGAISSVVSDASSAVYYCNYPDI
UniProt P40646: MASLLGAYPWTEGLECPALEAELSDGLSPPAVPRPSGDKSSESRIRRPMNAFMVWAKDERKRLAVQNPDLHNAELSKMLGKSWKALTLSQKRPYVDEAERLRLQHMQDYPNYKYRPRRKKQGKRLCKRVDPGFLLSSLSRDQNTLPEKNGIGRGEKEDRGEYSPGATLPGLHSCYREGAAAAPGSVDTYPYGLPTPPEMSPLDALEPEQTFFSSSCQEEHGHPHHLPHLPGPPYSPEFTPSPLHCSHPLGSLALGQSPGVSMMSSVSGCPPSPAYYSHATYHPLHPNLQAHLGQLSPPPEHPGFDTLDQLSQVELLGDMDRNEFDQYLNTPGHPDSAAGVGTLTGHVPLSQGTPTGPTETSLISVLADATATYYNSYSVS

Columns and labels:
[1] = target: Oct4POU (POU domain of mouse Oct4, residues 126-289 of the full length protein) (mouse) (UniProt P20263); assay: EMSA, compressed sox/oct element (FIG. 1)
[2] = target: Oct4POU (POU domain of mouse Oct4, residues 126-289 of the full length protein) (mouse) (UniProt P20263); assay: EMSA, ternary complex, compressed sox/oct element (-1 bp)
[3] = target: Oct4POU (POU domain of mouse Oct4, residues 126-289 of the full length protein) (mouse) (UniProt P20263); assay: EMSA competition, compressed element, Sox2HMG1 as competitor
[4] = target: Oct4POU (POU domain of mouse Oct4, residues 126-289 of the full length protein) (mouse) (UniProt P20263); assay: in vitro heterodimerization assay (EMSA), compressed sox/oct DNA element
[5] = target: Oct4POU (POU domain of mouse Oct4, residues 126-289 of the full length protein) (mouse) (UniProt P20263); assay: EMSA, canonical sox/oct element; 50 nM Sox17, 250 nM Oct4POU, 250 nM DNA
[6] = target: Oct4POU (POU domain of mouse Oct4, residues 126-289 of the full length protein) (mouse) (UniProt P20263); assay: EMSA alone and with Oct4, canonical and compressed Nanog-derived elements (FIG. 10C)
[7] = target: Oct4POU (POU domain of mouse Oct4, residues 126-289 of the full length protein) (mouse) (UniProt P20263); assay: EMSA with ordered addition of proteins, compressed element; 50 nM Sox17, 250 nM Oct4POU, 250 nM DNA
[8] = target: Oct4POU (POU domain of mouse Oct4, residues 126-289 of the full length protein) (mouse) (UniProt P20263); assay: EMSA, ternary complex, panel of sox/oct motif configurations; 50 nM Sox17HMG, 250 nM Oct4POU, 250 nM DNA
[9] = target: Oct4POU (POU domain of mouse Oct4, residues 126-289 of the full length protein) (mouse) (UniProt P20263); assay: EMSA, canonical elements (four spacer nucleotides) and compressed element; 50 nM Sox17HMG, 250 nM Oct4POU
[10] = target: Oct4POU (POU domain of mouse Oct4, residues 126-289 of the full length protein) (mouse) (UniProt P20263); assay: EMSA, canonical elements (four spacer nucleotides) and compressed element; 50 nM Sox7HMG, 250 nM Oct4POU

binding [1]	binding [2]	binding [3]	binding [4]	binding [5]	binding [6]	binding [7]	binding [8]	binding [9]	binding [10]	Substance
binds	binds	binds	binds	binds	binds	binds	binds	binds	–	Sox17HMG (HMG domain of mouse Sox17) (from UniProt Q61473 66-144)
binds	–	–	–	–	–	–	–	–	binds	Sox7HMG (HMG domain of mouse Sox7) (from UniProt P40646 43-121)
